The list shows a part of the results. Small differences around the control level are noise.

Protein sequences, listed by entry. Tags and fused reporters are not part of them. Lines headed by an entry give the natural chain unless they say otherwise; changes in a name come on top.
UniProt Q13315: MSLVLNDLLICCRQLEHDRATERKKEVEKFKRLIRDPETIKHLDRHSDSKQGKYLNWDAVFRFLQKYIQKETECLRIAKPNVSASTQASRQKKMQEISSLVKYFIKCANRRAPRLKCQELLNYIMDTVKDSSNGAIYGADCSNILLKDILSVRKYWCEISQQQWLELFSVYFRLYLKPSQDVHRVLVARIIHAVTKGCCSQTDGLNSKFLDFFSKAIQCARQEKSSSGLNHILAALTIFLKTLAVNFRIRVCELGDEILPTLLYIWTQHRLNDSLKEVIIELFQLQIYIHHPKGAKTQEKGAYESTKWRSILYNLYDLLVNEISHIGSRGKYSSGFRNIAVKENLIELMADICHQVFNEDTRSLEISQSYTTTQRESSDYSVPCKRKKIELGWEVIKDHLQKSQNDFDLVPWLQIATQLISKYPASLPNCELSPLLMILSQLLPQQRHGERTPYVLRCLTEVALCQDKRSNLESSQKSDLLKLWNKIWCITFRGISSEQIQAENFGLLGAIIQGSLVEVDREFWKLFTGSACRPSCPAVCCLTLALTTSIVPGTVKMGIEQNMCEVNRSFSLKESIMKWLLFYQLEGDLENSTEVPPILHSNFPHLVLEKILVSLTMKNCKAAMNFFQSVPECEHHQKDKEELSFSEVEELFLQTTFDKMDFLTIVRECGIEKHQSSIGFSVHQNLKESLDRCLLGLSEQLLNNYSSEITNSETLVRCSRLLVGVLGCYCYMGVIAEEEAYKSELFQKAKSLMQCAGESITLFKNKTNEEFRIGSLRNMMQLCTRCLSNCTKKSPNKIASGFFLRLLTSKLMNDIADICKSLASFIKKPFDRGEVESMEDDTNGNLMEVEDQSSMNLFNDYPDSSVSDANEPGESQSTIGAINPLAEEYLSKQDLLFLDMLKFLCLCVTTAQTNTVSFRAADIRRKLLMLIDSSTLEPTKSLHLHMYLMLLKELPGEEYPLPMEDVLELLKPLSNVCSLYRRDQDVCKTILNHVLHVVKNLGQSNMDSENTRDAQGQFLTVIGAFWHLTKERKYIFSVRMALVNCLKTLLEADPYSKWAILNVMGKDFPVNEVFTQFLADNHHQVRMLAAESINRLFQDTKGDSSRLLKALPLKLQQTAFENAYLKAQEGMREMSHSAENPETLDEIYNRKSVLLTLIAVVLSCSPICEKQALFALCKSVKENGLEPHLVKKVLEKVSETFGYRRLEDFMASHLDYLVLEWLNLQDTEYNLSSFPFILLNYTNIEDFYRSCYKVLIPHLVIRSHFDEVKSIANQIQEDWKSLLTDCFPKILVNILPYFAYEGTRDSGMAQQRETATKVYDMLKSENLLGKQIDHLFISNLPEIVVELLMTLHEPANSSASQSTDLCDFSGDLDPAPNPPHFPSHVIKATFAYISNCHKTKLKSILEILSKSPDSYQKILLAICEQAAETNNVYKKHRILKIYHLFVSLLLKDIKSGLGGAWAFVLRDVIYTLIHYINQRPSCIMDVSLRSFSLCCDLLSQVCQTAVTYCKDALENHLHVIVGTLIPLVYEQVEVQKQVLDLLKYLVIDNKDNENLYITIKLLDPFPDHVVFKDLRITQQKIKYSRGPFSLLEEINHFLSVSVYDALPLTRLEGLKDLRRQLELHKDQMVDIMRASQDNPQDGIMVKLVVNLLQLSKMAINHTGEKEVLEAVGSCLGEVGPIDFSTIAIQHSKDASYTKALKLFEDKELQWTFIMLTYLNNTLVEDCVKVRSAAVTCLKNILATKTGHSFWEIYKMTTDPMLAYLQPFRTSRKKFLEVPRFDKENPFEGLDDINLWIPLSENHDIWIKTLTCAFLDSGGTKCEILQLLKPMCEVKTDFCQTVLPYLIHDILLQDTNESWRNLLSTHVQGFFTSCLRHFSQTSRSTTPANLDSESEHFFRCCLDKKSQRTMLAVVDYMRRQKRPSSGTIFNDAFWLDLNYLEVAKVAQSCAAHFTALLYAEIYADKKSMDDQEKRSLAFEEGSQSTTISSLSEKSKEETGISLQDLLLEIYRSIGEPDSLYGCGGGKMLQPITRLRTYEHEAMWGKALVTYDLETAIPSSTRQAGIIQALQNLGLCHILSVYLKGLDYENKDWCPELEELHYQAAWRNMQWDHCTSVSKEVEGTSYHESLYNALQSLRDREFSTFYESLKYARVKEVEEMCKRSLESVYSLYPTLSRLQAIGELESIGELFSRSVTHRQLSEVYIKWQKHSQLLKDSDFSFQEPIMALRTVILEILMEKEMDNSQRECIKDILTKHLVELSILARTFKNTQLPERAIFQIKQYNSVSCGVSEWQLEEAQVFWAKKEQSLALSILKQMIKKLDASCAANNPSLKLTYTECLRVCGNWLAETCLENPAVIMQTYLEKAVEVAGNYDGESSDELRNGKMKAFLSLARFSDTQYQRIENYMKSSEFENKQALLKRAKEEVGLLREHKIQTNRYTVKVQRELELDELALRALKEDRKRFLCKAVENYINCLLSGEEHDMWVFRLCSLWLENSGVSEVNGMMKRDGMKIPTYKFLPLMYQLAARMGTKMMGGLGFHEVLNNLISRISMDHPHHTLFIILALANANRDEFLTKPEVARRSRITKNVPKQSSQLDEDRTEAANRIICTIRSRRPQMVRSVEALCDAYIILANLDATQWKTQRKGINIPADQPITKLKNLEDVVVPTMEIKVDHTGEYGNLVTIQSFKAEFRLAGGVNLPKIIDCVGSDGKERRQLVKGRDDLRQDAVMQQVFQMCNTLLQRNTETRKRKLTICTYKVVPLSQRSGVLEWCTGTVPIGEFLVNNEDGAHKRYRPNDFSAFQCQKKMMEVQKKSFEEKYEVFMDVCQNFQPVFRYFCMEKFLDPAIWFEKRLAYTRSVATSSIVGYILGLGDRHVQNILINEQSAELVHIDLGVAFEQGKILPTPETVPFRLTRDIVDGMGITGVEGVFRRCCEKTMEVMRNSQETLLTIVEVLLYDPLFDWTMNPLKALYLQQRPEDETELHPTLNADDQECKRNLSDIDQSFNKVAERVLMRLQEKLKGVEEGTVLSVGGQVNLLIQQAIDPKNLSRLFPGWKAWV
UniProt Q13829: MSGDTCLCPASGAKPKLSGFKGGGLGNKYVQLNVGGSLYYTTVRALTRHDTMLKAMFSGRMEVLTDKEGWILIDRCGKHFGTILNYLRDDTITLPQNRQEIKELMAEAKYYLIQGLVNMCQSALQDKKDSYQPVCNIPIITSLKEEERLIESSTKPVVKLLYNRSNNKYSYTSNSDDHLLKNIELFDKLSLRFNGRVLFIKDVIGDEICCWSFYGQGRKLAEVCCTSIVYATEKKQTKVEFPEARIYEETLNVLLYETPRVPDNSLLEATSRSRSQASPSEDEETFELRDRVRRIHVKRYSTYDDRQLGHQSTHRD
UniProt Q13206, whole entry: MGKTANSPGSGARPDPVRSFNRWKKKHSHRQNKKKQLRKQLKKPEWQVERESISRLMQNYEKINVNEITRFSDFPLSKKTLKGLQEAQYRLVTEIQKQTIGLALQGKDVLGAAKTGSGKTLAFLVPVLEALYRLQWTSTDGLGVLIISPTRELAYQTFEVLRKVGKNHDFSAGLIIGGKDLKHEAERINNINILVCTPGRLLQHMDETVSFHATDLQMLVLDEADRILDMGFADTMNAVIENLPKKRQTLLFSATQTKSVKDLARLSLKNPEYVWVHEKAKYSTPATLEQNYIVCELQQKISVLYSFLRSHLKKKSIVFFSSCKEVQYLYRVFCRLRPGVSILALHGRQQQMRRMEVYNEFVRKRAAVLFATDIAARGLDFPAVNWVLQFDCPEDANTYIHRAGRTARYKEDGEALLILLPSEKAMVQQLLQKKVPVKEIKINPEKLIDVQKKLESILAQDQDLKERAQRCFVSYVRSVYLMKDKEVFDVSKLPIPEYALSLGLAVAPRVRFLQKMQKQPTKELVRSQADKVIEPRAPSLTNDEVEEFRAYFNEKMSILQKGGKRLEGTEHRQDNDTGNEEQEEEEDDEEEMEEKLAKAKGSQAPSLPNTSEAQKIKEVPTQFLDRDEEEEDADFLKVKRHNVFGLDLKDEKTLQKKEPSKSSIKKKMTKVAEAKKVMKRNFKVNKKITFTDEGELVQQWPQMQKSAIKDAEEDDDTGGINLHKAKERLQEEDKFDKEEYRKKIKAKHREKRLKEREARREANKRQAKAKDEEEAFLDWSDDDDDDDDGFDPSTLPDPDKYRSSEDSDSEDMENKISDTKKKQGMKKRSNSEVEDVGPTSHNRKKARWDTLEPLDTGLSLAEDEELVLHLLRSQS
UniProt Q14160: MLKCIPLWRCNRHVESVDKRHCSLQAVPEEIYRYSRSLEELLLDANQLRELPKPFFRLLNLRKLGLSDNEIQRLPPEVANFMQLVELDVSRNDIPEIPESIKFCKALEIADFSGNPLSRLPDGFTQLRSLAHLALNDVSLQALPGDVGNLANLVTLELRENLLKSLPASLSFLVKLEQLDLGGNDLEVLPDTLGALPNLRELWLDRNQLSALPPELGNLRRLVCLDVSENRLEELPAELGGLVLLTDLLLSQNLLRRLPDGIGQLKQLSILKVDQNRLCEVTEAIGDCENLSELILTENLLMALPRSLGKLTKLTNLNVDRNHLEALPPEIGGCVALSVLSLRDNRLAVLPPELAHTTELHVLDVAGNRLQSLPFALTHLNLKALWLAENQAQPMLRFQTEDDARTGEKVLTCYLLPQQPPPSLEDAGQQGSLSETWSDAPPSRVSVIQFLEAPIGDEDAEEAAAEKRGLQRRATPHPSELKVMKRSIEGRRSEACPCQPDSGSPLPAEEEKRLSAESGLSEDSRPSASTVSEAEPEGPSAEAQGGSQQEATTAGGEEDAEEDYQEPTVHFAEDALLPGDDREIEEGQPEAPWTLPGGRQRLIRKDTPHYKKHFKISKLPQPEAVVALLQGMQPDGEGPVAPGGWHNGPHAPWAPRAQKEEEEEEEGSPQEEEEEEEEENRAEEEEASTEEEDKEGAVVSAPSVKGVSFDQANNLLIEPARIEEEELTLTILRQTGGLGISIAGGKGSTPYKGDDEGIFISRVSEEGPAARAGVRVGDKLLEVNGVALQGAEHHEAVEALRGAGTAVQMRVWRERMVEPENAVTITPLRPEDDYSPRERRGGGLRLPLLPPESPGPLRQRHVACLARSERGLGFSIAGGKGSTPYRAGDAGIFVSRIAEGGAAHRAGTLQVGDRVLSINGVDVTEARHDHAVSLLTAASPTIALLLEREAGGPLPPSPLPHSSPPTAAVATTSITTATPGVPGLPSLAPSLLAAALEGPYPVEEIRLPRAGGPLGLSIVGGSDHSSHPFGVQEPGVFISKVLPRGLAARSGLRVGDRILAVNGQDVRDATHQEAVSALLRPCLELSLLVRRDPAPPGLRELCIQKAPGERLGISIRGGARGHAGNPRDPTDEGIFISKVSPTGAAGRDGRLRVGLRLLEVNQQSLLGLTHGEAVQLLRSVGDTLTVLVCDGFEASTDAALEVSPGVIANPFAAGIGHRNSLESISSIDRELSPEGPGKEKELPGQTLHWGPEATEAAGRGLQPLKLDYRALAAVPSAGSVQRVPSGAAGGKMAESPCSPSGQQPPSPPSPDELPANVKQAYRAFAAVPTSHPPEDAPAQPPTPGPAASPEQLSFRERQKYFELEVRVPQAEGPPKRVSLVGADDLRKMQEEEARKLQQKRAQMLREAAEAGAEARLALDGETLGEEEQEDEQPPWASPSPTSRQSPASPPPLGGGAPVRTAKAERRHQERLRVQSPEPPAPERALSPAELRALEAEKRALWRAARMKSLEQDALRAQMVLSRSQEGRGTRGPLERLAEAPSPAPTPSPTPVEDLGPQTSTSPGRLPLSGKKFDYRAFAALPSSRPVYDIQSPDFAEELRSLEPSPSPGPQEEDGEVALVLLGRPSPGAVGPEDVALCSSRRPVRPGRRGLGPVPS
UniProt Q13492: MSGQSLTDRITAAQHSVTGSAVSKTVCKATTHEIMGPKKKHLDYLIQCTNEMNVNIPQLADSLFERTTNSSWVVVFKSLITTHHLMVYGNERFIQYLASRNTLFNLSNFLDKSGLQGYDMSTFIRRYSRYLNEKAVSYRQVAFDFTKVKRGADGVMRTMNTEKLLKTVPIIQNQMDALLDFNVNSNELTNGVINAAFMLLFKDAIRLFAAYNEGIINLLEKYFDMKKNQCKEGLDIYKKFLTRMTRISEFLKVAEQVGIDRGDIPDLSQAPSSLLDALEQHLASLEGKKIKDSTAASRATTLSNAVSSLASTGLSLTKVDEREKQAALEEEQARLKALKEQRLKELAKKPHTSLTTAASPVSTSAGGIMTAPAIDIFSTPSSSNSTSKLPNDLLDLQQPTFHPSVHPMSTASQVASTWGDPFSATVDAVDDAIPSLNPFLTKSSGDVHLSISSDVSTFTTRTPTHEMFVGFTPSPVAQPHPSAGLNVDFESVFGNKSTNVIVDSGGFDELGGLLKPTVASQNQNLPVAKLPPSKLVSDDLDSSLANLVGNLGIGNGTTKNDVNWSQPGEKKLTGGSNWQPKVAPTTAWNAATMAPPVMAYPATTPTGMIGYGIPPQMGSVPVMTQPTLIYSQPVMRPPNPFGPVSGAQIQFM

Compound in the experiment: Cc1nc(Nc2ncc(C(=O)Nc3c(C)cccc3Cl)s2)cc(N2CCN(CCO)CC2)n1 [dasatinib]
The experiment in a line: log2 fold change of tryptic peptide abundance, ligand vs vehicle (limited proteolysis) (log2 ratio); higher = more trypsin-susceptible (destabilized). The following applies: ligand concentration: 5 uM; sample: K562 cleared lysate.
On to “UniProt Q13342 (peptide sequence: KHKDETVDFK, peptide start residue: 577)”, for which the log2 fold change was -0.136. The value for “UniProt Q14CX7 (peptide sequence: MAIQQADKLLKK, peptide start residue: 29)” was 0.0964. Take “MTX1 (peptide sequence: NYVEVTRK, peptide start residue: 267) (UniProt Q13505)”: the log2 fold change came out at 0.492. With “RIPK1 (peptide sequence: RVSHDPFAQQRPYENFQNTEGK, peptide start residue: 414) (UniProt Q13546)” the figure was -0.132; with “ATM (peptide sequence: IAKPNVSASTQASR, peptide start residue: 77) (UniProt Q13315)”, -0.296.

On to “FASTKD3 (peptide sequence: NEESQMFYR, peptide start residue: 96) (UniProt Q14CZ7)”, for which the log2 fold change came to 0.11. With “PAK1 (peptide sequence: SILPGDKTNK, peptide start residue: 57) (UniProt Q13153)”, the log2 fold change is 0.317. The value for “GSE1 (peptide sequence: KFLTIFNLTHISAEKR, peptide start residue: 865) (UniProt Q14687)” was -0.383.

Consider “UniProt Q14585 (peptide sequence: MHTGEKPYECK, peptide start residue: 469)”, for which the log2 fold change came to 0.803.

On to “DSG2 (peptide sequence: VATPLPDPMASR, peptide start residue: 920) (UniProt Q14126)”, for which the log2 fold change worked out at 0.666. The value for “TNFAIP1 (peptide sequence: QLGHQSTHRD, peptide start residue: 307) (UniProt Q13829)” was 0.635; that for “GANAB (peptide sequence: KLVAIVDPHIK, peptide start residue: 462) (UniProt Q14697)” was 0.454. The value for “CASP8 (peptide sequence: SKPRGYCLIINNHNFAK, peptide start residue: 230) (UniProt Q14790)” was 0.631.

As for “PPIL2 (peptide sequence: EFKGDEILAATMKAPEK, peptide start residue: 214) (UniProt Q13356)”, the log2 fold change was -0.688. “TOP3A (peptide sequence: KVLCVAEKNDAAK, peptide start residue: 35) (UniProt Q13472)”: the log2 fold change is -0.562.

Regarding “UniProt Q13242 (peptide sequence: HGLVPFAFVR, peptide start residue: 49)”, the log2 fold change is -0.146.

As for “UniProt Q13946 (peptide sequence: YHLGVSPLCDR, peptide start residue: 394)”, the log2 fold change stood at 0.759. In the case of “IL18 (peptide sequence: GMAVTISVK, peptide start residue: 95) (UniProt Q14116)”, the log2 fold change worked out at 0.359. The value for “AAMP (peptide sequence: AVVGYEDGTIR, peptide start residue: 230) (UniProt Q13685)” was 0.261; that for “TUBB3 (peptide sequence: MSMKEVDEQMLAIQSK, peptide start residue: 321) (UniProt Q13509)” was 0.538.

For the target “SLBP (peptide sequence: LLINDFGR, peptide start residue: 99) (UniProt Q14493)”, the log2 fold change was -0.0715.

Regarding “UniProt Q13620 (peptide sequence: EVPEYLHHVNKR, peptide start residue: 409)”, the log2 fold change was -0.24. With “GRB10 (peptide sequence: LLCAEDEQTR, peptide start residue: 378) (UniProt Q13322)” the figure was -0.31; with “GTF2H2 (peptide sequence: ICGLTLVSAPHLAR, peptide start residue: 307) (UniProt Q13888)”, -0.538; with “CTTN (peptide sequence: ERQEQEEARR, peptide start residue: 380) (UniProt Q14247)”, 0.151.

With “MORC3 (peptide sequence: SLAYIERDVYRPK, peptide start residue: 281) (UniProt Q14149)”, the log2 fold change is 0.365. With “UniProt Q14004 (peptide sequence: TKPLTPSIGAK, peptide start residue: 584)” the figure was -0.158; with “ITPK1 (peptide sequence: KLNFQAFAELCR, peptide start residue: 21) (UniProt Q13572)”, -0.297.

In the case of “DDX10 (peptide sequence: SQADKVIEPR, peptide start residue: 527) (UniProt Q13206)”, the log2 fold change is -0.213.

As for “ZBTB17 (peptide sequence: AFTQASSLIAHVR, peptide start residue: 538) (UniProt Q13105)”, the log2 fold change was 0.369.

On to “CBX3 (peptide sequence: KSLSDSESDDSKSK, peptide start residue: 92) (UniProt Q13185)”, for which the log2 fold change amounted to 0.429. The value for “UniProt Q14565 (peptide sequence: FHEEAGIFK, peptide start residue: 210)” was 0.287; that for “SCRIB (peptide sequence: GSTPYKGDDEGIFISR, peptide start residue: 747) (UniProt Q14160)” was -0.533. With “PICALM (peptide sequence: SLITTHHLMVYGNER, peptide start residue: 78) (UniProt Q13492)” the figure was -0.191; with “IFT88 (peptide sequence: MFSNAGILK, peptide start residue: 228) (UniProt Q13099)”, -0.275. With “MRPL49 (peptide sequence: MHNIPVYK, peptide start residue: 91) (UniProt Q13405)”, the log2 fold change is 0.428.
